For at least one entry, the source does not settle the construct or the ends of the probe. For some of these results: No signal at the amounts used counts as a negative.

Holding throughout (experiment): binding assay
Data set [1] concerns the target Taq DNA polymerase (Thermus aquaticus) (UniProt P19821). To be noted: iSp18 spacer and 3' amino in DCP1, purified recombinant protein, protein details: New England Biolabs.
The test system of the next data set is Phusion DNA polymerase. To be noted: LNA at GATA and GAAC of 3' 12-mer GATAgcttGAAC of SEQ 2 (mC LNA), PS linkages in the 12-mer; iSp18 spacer and 3' amino in DCP1; no read-through with or without PEG/propanediol, HF or GF buffer; purified recombinant protein; protein details: Thermo Scientific; synthetic backbone.
In data set [2] the target is RevertAid reverse transcriptase (UniProt P03355). To be noted: LNA at GATA and GAAC of 3' 12-mer GATAgcttGAAC of SEQ 2 (mC LNA), PS linkages in the 12-mer; iSp18 spacer and 3' amino in DCP1; no or very very low read-through, 42 C; purified recombinant protein; protein details: Thermo Scientific; synthetic backbone.

Consider “GCGTAACTAGACCATAAGCCGATAGCTTGAACCGGACCAGCAAGCTTAGAGATCACGGTATCCAGATTCGCTCATAGTACACAACTGCCTCCGGTTCAA / GCAGTTGTGTACTATGAGCGA [DTT1 template with DCP1_primer1]”, for which the binding result in data set [1] (all DNA phosphodiester, ddPCR EvaGreen supermix with added Taq, many positive droplets, variant of LTT1 template with DCP1_primer1) is “binds”.
Take “GCGTAACTAGACCATAAGCCGATAGCTTGAACCGGACCAGCAAGCTTAGAGATCACGGTATCCAGATTCGCTCATAGTACACAACTGCCTCCGGTTCAA / GCAGTTGTGTACTATGAGCGA [LTT1 template with DCP1_primer1]”: the binding result in the data set with Phusion DNA polymerase is reported as “no binding”; in data set [2] it was “no binding”; in data set [1] (LNA at GATA and GAAC of 3' 12-mer GATAgcttGAAC of SEQ 2 (mC LNA), PS linkages in the 12-mer, effective read-through only with 10% PEG and 0.31 M propanediol, almost none in standard buffer (FIG. 5A), synthetic backbone), “binds”.

The values above are taken from patent US20210071247.
